Test results published in patent US20220334133A1, “METHODS AND COMPOUNDS MODIFYING MITOCHONDRIAL FUNCTION” (The Board of Trusteesof the Leland Stanford Junior …, priority 2019, published 2022).
At least one compound was matched to its structure with a doubt left.

Test system: Miro1
Assay: Hit confirmation: immunocytochemistry and confocal microscopy of Miro1 in sporadic PD fibroblasts
Type: cell-based, human
Details: DMSO instead of FCCP, with compound at highest screening concentration; sporadic PD line; at least 4 biological replicates
Experimental: Fibroblast cells were plated in 6-well plates (VWR, 10861-554) on coverslips (Fisher scientific, 22-293232) at 400.000 cells/well and plates were incubated at 37° C., 5% CO2 for 24 hrs. Next, newly ordered chemical compounds dissolved in DMSO were added at defined concentrations and plates were incubated at 37° C./5% CO2 for 10 hrs. Then, FCCP (final concentration of 20 μM, Carbonyl cyanide 4-(trifluoromethoxy)phenylhydrazone, Sigma-Aldrich, C2920) in cell media was added to defined wells and plates were incubated at 37° C., 5% CO2 for another 14 hrs. Cells were fixed with ice-cold 90% methanol (Fisher, 482332) for 20 min at −20° C., incubated with blocking buffer (10% Normal Goat Serum (NGS) (ThermoFisher, 50062Z), 0.5% BSA (ThermoFisher, BP1600), 0.2% Triton X-100 (ThermoFisher, T8787)) at 25° C. for 15 min and incubated with anti-Miro1 (Sigma-Aldrich, HPA0101687) at 1:100 in blocking buffer O/N at 4° C. […]

CNC(=O)Oc1ccc2c(c1)[C@]1(C)CCN(C)[C@@H]1N2C [Physostigmine]
Basal Miro1 levels (without mitochondrial depolarization): already reduced Miro1 protein at baseline
